Results from patent US20110178107A1, “HCV PROTEASE INHIBITORS” (TaiGen Biotechnology Co., Ltd., priority 2010, published 2011).
Some of these results come from one statement about several compounds together.

Biological target: T1, NS3/4A protease (Hepatitis C virus genotype 1a, UniProt P27958)
T1 construct: N-terminal His6-tagged-NS4A(21-32)-GSGS-NS3(3-181); made in house; host or cells: E. coli BL21(DE3) pLysS
Experiment: Inhibition of NS3/4A protease activity (HPLC microbore assay)
Assay type: biochemical, HCV
Settings: 2 nM NS3/4A protease, 30 minutes at 30° C; call rule not given here.

Structure (SMILES)	inhibiting NS3/4A activity
C=C[C@@H]1C[C@]1(NC(=O)[C@@H]1C[C@@H](Oc2nc(-c3ccc(OC(C)C)cc3)nc3c2sc2ccc(F)cc23)CN1C(=O)[C@@H](Nc1ccc(F)cc1)C(C)(C)C)C(=O)NS(=O)(=O)C1CC1 [Compound 152]	active
CNC(=O)c1csc(N[C@H]2CCCCC/C=C\[C@@H]3C[C@@]3(C(=O)NS(=O)(=O)C3CC3)NC(=O)[C@@H]3C[C@@H](Oc4nc(-c5ccc(C(F)(F)F)cc5)nc5c4oc4ccccc45)CN3C2=O)n1 [Compound 198]	active
Cc1ccc2c(c1)nn1c(O[C@@H]3C[C@H]4C(=O)N[C@]5(C(=O)NS(=O)(=O)C6CC6)C[C@H]5/C=C\CCCCC[C@H](NC(=O)OC5CCCC5)C(=O)N4C3)cc(-c3ccccc3)nc21 [Compound 256]	active
C=C[C@@H]1C[C@]1(NC(=O)[C@@H]1C[C@@H](Oc2nc(-c3ccc(OC(C)C)cc3)nc3c2oc2ccc(F)cc23)CN1C(=O)[C@@H](Nc1cccc(F)c1)C(C)(C)C)C(=O)NS(=O)(=O)C1CC1 [Compound 145]	active
O=C(N[C@H]1CCCCC/C=C\[C@@H]2C[C@@]2(C(=O)NS(=O)(=O)C2CC2)NC(=O)[C@@H]2C[C@@H](Oc3cc(-c4ccccc4)nc4c5ccc(C(F)(F)F)cc5nn34)CN2C1=O)OC1CCCC1 [Compound 249]	active
C=C[C@@H]1C[C@]1(NC(=O)[C@@H]1C[C@@H](Oc2nc(-c3ccc(OC(F)(F)F)cc3)nc3c2oc2ccccc23)CN1C(=O)[C@@H](Nc1ccc(F)cc1)C(C)(C)C)C(=O)NS(=O)(=O)C1CC1 [Compound 174]	active
C=C[C@@H]1C[C@]1(NC(=O)[C@@H]1C[C@@H](Oc2nc(-c3ccc(OC(C)C)cc3)nc3c2oc2ccc(F)cc23)CN1C(=O)[C@@H](Nc1cncnc1)C(C)(C)C)C(=O)NS(=O)(=O)C1CC1 [Compound 146]	active
C=C[C@@H]1CC1(NC(=O)[C@@H]1C[C@@H](Oc2nc(-c3ccc(OC(C)C)cc3)nc3c2oc2ccccc23)CN1C(=O)[C@@H](Nc1ccc(F)cc1)C(C)(C)C)C(=O)NS(=O)(=O)C1CC1 (stereo partly drawn) [Compound 95, (2S,4R)—N-((2S)-1-(cyclopropylsulfonylcarbamoyl)-2-vinylcyclopropyl)-1-((S)-2-(4-fluorophenylamino)-3,3-dimethylbutanoyl)-4-(2-(4-isopropoxyphenyl)benzofuro[3,2-d]pyrimidin-4-yloxy)pyrrolidine-2-carboxamide]	active
O=C(N[C@H]1CCCCC/C=C\[C@@H]2C[C@@]2(C(=O)NS(=O)(=O)C2CC2)NC(=O)[C@@H]2C[C@@H](Oc3cc(-c4ccsc4)nc4c5ccccc5nn34)CN2C1=O)OC1CCCC1 [Compound 277]	active
Cc1nc(N[C@H]2CCCCC/C=C\[C@@H]3C[C@@]3(C(=O)NS(=O)(=O)C3CC3)NC(=O)[C@@H]3C[C@@H](Oc4nc(-c5ccc(C(F)(F)F)cc5)nc5c4oc4ccccc45)CN3C2=O)sc1C [Compound 190, (2R,6S,13aS,14aR,16aS,Z)—N-(cyclo-propylsulfonyl)-6-(4,5-dimethylthiazol-2-ylamino)-5,16-dioxo-2-(2-(4-(trifluoromethyl-)phenyl)benzofuro[3,2-d]pyrimidin-4-yloxy)-1,2,3,5,6,7,8,9,10,11,13a,14,14a,15,16,16a-hexadecahydrocyclopropa[e]pyrrolo[1,2-a][1,4]diazacyclopentadecine-14a-carboxamide]	active
O=C(N[C@H]1CCCCC/C=C\[C@@H]2C[C@@]2(C(=O)NS(=O)(=O)C2CC2)NC(=O)[C@@H]2C[C@@H](Oc3cc(C4CCCC4)nc4c5ccccc5nn34)CN2C1=O)OC1CCCC1 [Compound 282]	active
C=C[C@@H]1C[C@]1(NC(=O)[C@@H]1C[C@@H](Oc2nc(-c3ccc(C(F)(F)F)cc3)nc3c2oc2ccccc23)CN1C(=O)[C@@H](Nc1ccc(C(=O)NCC)cc1)C(C)(C)C)C(=O)NS(=O)(=O)C1CC1 [Compound 87]	active
C=C[C@@H]1C[C@]1(NC(=O)[C@@H]1C[C@@H](Oc2nc(-c3ccc(C(F)(F)F)cc3)nc3c2oc2ccccc23)CN1C(=O)[C@@H](Nc1cccc(C(=O)N(C)C)c1)C(C)C)C(=O)NS(=O)(=O)C1CC1 [Compound 78]	active
COc1cccc2c1nn1c(O[C@@H]3C[C@H]4C(=O)N[C@]5(C(=O)NS(=O)(=O)C6CC6)C[C@H]5/C=C\CCCCC[C@H](NC(=O)OC5CCCC5)C(=O)N4C3)cc(-c3ccc(OC(C)C)cc3)nc21 [Compound 264]	active
C=C[C@@H]1C[C@]1(NC(=O)[C@@H]1C[C@@H](Oc2nc(-c3ccc(C(F)(F)F)cc3)nc3c2oc2ccccc23)CN1C(=O)[C@@H](Nc1nc(C(=O)O)cs1)C1CCCCC1)C(=O)NS(=O)(=O)C1CC1 [Compound 58]	active
CC(C)Oc1ccc(-c2nc(O[C@@H]3C[C@H]4C(=O)N[C@]5(C(=O)NS(=O)(=O)C6CC6)C[C@H]5/C=C\CCCCC[C@H](Nc5cccc(F)c5)C(=O)N4C3)c3sc4ccccc4c3n2)cc1 [Compound 216]	active
C=C[C@@H]1C[C@]1(NC(=O)[C@@H]1C[C@@H](Oc2nc(-c3ccc(C(F)(F)F)cc3)nc3c2oc2ccccc23)CN1C(=O)[C@@H](Nc1nc(C(C)(C)C)cs1)C(C)(C)C)C(=O)NS(=O)(=O)C1CC1 [Compound 13]	active

Structure (SMILES)	inhibiting NS3/4A activity
C=C[C@@H]1C[C@]1(NC(=O)[C@@H]1C[C@@H](Oc2nc(-c3ccc(OC(C)C)cc3)nc3c2sc2ccccc23)CN1C(=O)[C@@H](Nc1nc(C)c(C(=O)OC)s1)C(C)(C)C)C(=O)NS(=O)(=O)C1CC1 [Compound 139]	active
COc1ccc(-c2cc(O[C@@H]3C[C@H]4C(=O)N[C@]5(C(=O)NS(=O)(=O)C6CC6)C[C@H]5/C=C\CCCCC[C@H](NC(=O)OC5CCCC5)C(=O)N4C3)n3nc4ccc(OC)cc4c3n2)cc1 [Compound 262]	active
COC(=O)c1sc(N[C@H]2CCCCC/C=C\[C@@H]3C[C@@]3(C(=O)NS(=O)(=O)C3CC3)NC(=O)[C@@H]3C[C@@H](Oc4nc(-c5ccc(C(F)(F)F)cc5)nc5c4oc4ccccc45)CN3C2=O)nc1C [Compound 205]	active
C=C[C@@H]1C[C@]1(NC(=O)[C@@H]1C[C@@H](Oc2nc(-c3ccc(OC(C)C)cc3)nc3c2oc2ccccc23)CN1C(=O)[C@@H](Nc1ccc(F)cc1)C1CCCCC1)C(=O)NS(=O)(=O)C1CC1 [Compound 160]	active
CCc1csc(N[C@H](C(=O)N2C[C@H](Oc3nc(-c4ccc(C(F)(F)F)cc4)nc4c3oc3ccccc34)C[C@H]2C(=O)N[C@]2(C(=O)NS(=O)(=O)C3CC3)C[C@H]2CC)C(C)C)n1 [Compound 7]	active
CC[C@@H]1C[C@]1(NC(=O)[C@@H]1C[C@@H](Oc2nc(-c3ccc(C(F)(F)F)cc3)nc3c2oc2ccccc23)CN1C(=O)[C@@H](NC1=NC(=O)CS1)C1CCCCC1)C(=O)NS(=O)(=O)C1CC1 [Compound 25]	active
CC[C@@H]1C[C@]1(NC(=O)[C@@H]1C[C@@H](Oc2nc(-c3ccc(C(F)(F)F)cc3)nc3c2oc2ccccc23)CN1C(=O)[C@@H](Nc1cc(F)cc(F)c1)C1CCCCC1)C(=O)NS(=O)(=O)C1CC1 [Compound 41]	active
CN(C)C(=O)c1csc(N[C@H]2CCCCC/C=C\[C@@H]3C[C@@]3(C(=O)NS(=O)(=O)C3CC3)NC(=O)[C@@H]3C[C@@H](Oc4nc(-c5ccc(C(F)(F)F)cc5)nc5c4oc4ccccc45)CN3C2=O)n1 [Compound 194]	active
CC1(S(=O)(=O)NC(=O)[C@@]23C[C@H]2/C=C\CCCCC[C@H](NC(=O)OC2CCCC2)C(=O)N2C[C@H](Oc4cc(-c5ccco5)nc5nc6ccccc6n45)C[C@H]2C(=O)N3)CC1 [Compound 305]	active
COc1cccc(-c2cc(O[C@@H]3C[C@H]4C(=O)N[C@]5(C(=O)NS(=O)(=O)C6CC6)C[C@H]5/C=C\CCCCC[C@H](NC(=O)OC5CCCC5)C(=O)N4C3)n3nc4ccccc4c3n2)c1 [Compound 230]	active
O=C(N[C@H]1CCCCC/C=C\[C@@H]2C[C@@]2(C(=O)NS(=O)(=O)C2CC2)NC(=O)[C@@H]2C[C@@H](Oc3cc(-c4ccccc4)nc4c5cccc(C(F)(F)F)c5nn34)CN2C1=O)OC1CCCC1 [Compound 248]	active
O=C(N[C@H]1CCCCC/C=C\[C@@H]2C[C@@]2(C(=O)NS(=O)(=O)C2CC2)NC(=O)[C@@H]2C[C@@H](Oc3cc(-c4ccncc4)nc4c5ccccc5nn34)CN2C1=O)OC1CCCC1 [Compound 272]	active
C=C[C@@H]1C[C@]1(NC(=O)[C@@H]1C[C@@H](Oc2nc(-c3ccc(C(F)(F)F)cc3)nc3c2oc2ccccc23)CN1C(=O)[C@@H](Nc1nc(C(=O)OC)cs1)C(C)(C)C)C(=O)NS(=O)(=O)C1CC1 [Compound 91, methyl 2-((2S)-1-((2S,4R)-2-((2S)-1-(cyclopropylsulfonylcarbamoyl)-2-vinylcyclopropyl-carbamoyl)-4-(2-(4-(trifluoromethyl)phenyl)benzofuro[3,2-d]pyrimidin-4-yloxy-)pyrrolidin-1-yl)-3,3-dimethyl-1-oxobutan-2-ylamino)thiazole-4-carboxylate]	active
CC[C@@H]1C[C@]1(NC(=O)[C@@H]1C[C@@H](Oc2nc(-c3ccc(C(F)(F)F)cc3)nc3c2oc2ccccc23)CN1C(=O)[C@@H](Nc1nc(C)cs1)C1CCCCC1)C(=O)NS(=O)(=O)C1CC1 [Compound 24]	active
C=C[C@@H]1C[C@]1(NC(=O)[C@@H]1C[C@@H](Oc2nc(-c3ccc(C(F)(F)F)cc3)nc3c2oc2ccccc23)CN1C(=O)[C@@H](Nc1nc(C(C)C)cs1)C1CCCCC1)C(=O)NS(=O)(=O)C1CC1 [Compound 34]	active
C=CCCCCC[C@H](Nc1cccc(Cl)c1)C(=O)N1C[C@H](Oc2nc(-c3ccc(C(F)(F)F)cc3)nc3c2oc2ccccc23)C[C@H]1C(=O)N[C@]1(C(=O)NS(=O)(=O)C2CC2)C[C@H]1C=C [Compound 60]	active
C=C[C@@H]1C[C@]1(NC(=O)[C@@H]1C[C@@H](Oc2nc(-c3ccc(C(F)(F)F)cc3)nc3c2sc2ccccc23)CN1C(=O)[C@@H](Nc1nc(C(=O)OC)cs1)C(C)(C)C)C(=O)NS(=O)(=O)C1CC1 [Compound 131]	active
